From the supplement of paper PMC11546906
Where a name gives a salt, the structure may show the parent alone. Some of the results follow. Single values are uncertain here, since repeats match poorly.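 FDA-approved drugs were each paired with colistin at one-eighth its MIC and screened against a multidrug-resistant, mcr-1-positive clinical E. coli isolate, with OD600 read after 24 h. Drug-free bacteria served as growth control, plain broth as blank. Combinations were active if OD600 dropped below 0.2.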

These molecules were tested on Escherichia coli 42 (mcr-1-positive clinical isolate) (assay: OD600 after 24 h growth with compound plus colistin (absorbance units (OD600)); higher = more bacterial growth (less inhibition)). Conditions: first compound 25 µM; colistin concentration 0.5 ug/mL; incubation time 24 h; 37 °C.
For `CNC(=O)c1ccc(N2C(=S)N(c3ccc(C#N)c(C(F)(F)F)c3)C(=O)C2(C)C)cc1F` [Enzalutamide] + CCC(C)CCCC(=O)N[C@@H](CCN)C(=O)N[C@H](C(=O)N[C@@H](CCN)C(=O)N[C@H]1CCNC(=O)[C@H]([C@@H](C)O)NC(=O)[C@H](CCN)NC(=O)[C@H](CCN)NC(=O)[C@H](CC(C)C)NC(=O)[C@@H](CC(C)C)NC(=O)[C@H](CCN)NC1=O)[C@@H](C)O [colistin], the OD600 was inactive: 0.809.
In the case of `CN(C)C(=N)NC(=N)N` [Metformin hydrochloride] + CCC(C)CCCC(=O)N[C@@H](CCN)C(=O)N[C@H](C(=O)N[C@@H](CCN)C(=O)N[C@H]1CCNC(=O)[C@H]([C@@H](C)O)NC(=O)[C@H](CCN)NC(=O)[C@H](CCN)NC(=O)[C@H](CC(C)C)NC(=O)[C@@H](CC(C)C)NC(=O)[C@H](CCN)NC1=O)[C@@H](C)O [colistin], the OD600 is reported as inactive: 0.787.
For `CCN(c1cc(-c2ccc(CN3CCOCC3)cc2)cc(C(=O)NCc2c(C)cc(C)[nH]c2=O)c1C)C1CCOCC1` [Tazemetostat] + CCC(C)CCCC(=O)N[C@@H](CCN)C(=O)N[C@H](C(=O)N[C@@H](CCN)C(=O)N[C@H]1CCNC(=O)[C@H]([C@@H](C)O)NC(=O)[C@H](CCN)NC(=O)[C@H](CCN)NC(=O)[C@H](CC(C)C)NC(=O)[C@@H](CC(C)C)NC(=O)[C@H](CCN)NC1=O)[C@@H](C)O [colistin], the OD600 was inactive: 0.97.
`CC1(C)O[C@@H]2C[C@H]3[C@@H]4CCC5=CC(=O)C=C[C@]5(C)[C@@]4(F)[C@@H](O)C[C@]3(C)[C@]2(C(=O)CO)O1` [Triamcinolone acetonide] + CCC(C)CCCC(=O)N[C@@H](CCN)C(=O)N[C@H](C(=O)N[C@@H](CCN)C(=O)N[C@H]1CCNC(=O)[C@H]([C@@H](C)O)NC(=O)[C@H](CCN)NC(=O)[C@H](CCN)NC(=O)[C@H](CC(C)C)NC(=O)[C@@H](CC(C)C)NC(=O)[C@H](CCN)NC1=O)[C@@H](C)O [colistin] was tested, and the OD600 was inactive: 1.04.
`C[Se]CC[C@H](N)C(=O)O` [Selenomethionine] + CCC(C)CCCC(=O)N[C@@H](CCN)C(=O)N[C@H](C(=O)N[C@@H](CCN)C(=O)N[C@H]1CCNC(=O)[C@H]([C@@H](C)O)NC(=O)[C@H](CCN)NC(=O)[C@H](CCN)NC(=O)[C@H](CC(C)C)NC(=O)[C@@H](CC(C)C)NC(=O)[C@H](CCN)NC1=O)[C@@H](C)O [colistin] was tested, and the OD600 was inactive: 0.999.
With `COc1cc([C@@H]2c3cc4c(cc3[C@@H](O[C@@H]3O[C@@H]5CO[C@@H](c6cccs6)O[C@H]5[C@H](O)[C@H]3O)[C@H]3COC(=O)[C@H]23)OCO4)cc(OC)c1O` [Teniposide] + CCC(C)CCCC(=O)N[C@@H](CCN)C(=O)N[C@H](C(=O)N[C@@H](CCN)C(=O)N[C@H]1CCNC(=O)[C@H]([C@@H](C)O)NC(=O)[C@H](CCN)NC(=O)[C@H](CCN)NC(=O)[C@H](CC(C)C)NC(=O)[C@@H](CC(C)C)NC(=O)[C@H](CCN)NC1=O)[C@@H](C)O [colistin] the OD600 was inactive: 0.929.
`CCCSc1nc(N[C@@H]2C[C@H]2c2ccc(F)c(F)c2)c2nnn([C@@H]3C[C@H](OCCO)[C@@H](O)[C@H]3O)c2n1` [Ticagrelor] + CCC(C)CCCC(=O)N[C@@H](CCN)C(=O)N[C@H](C(=O)N[C@@H](CCN)C(=O)N[C@H]1CCNC(=O)[C@H]([C@@H](C)O)NC(=O)[C@H](CCN)NC(=O)[C@H](CCN)NC(=O)[C@H](CC(C)C)NC(=O)[C@@H](CC(C)C)NC(=O)[C@H](CCN)NC1=O)[C@@H](C)O [colistin] was tested, and the OD600 was inactive: 1.08.
In the case of `CN1CCc2nc(C(=O)N[C@@H]3C[C@@H](C(=O)N(C)C)CC[C@@H]3NC(=O)C(=O)Nc3ccc(Cl)cn3)sc2C1` [Edoxaban Tosylate Monohydrate] + CCC(C)CCCC(=O)N[C@@H](CCN)C(=O)N[C@H](C(=O)N[C@@H](CCN)C(=O)N[C@H]1CCNC(=O)[C@H]([C@@H](C)O)NC(=O)[C@H](CCN)NC(=O)[C@H](CCN)NC(=O)[C@H](CC(C)C)NC(=O)[C@@H](CC(C)C)NC(=O)[C@H](CCN)NC1=O)[C@@H](C)O [colistin], the OD600 is reported as inactive: 0.975.
